# PubChem BioAssay AID1259254, NCATS – 2017
# Screen: 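Genome-wide screen for genes that prevent DNA re-replication in cancer cells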 (primary screen)
# Cell system: human HCT116 colorectal cancer cells
# Reagent: single siRNA against human genes
# Time to read-out: 3 days
# Read-out: 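Nuclei stained with Hoechst and imaged; cell-cycle phase assigned by DNA content; G2 share scaled per plate, non-targeting siRNA 0%, GMNN siRNA 100%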
# Scale: G2 robust z-score and G2 cells, % of GMNN control: higher = more G2 cells, more excess DNA replication; raw share of cells in G2: higher = larger share of cells with G2 DNA content
# Hit rule: 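Active siRNAs have a G2 robust z of 5 or more median absolute deviations over the median, which in these data means about 38% or higher of GMNN control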
# Shown is one part, drawn at random, of about 59,000 deposited reagents. About 1,550 of all reagents (2.6%) were called active. 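G2 share is only a proxy for re-replication; each gene was hit by three separate siRNAs, and active genes were retested.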 The raw values are shown without normalisation. Entries without a mark were called inactive. Not stated in the record: the amount of reagent.
target,PubChem SID,G2 robust z-score,"G2 cells, % of GMNN control",raw share of cells in G2 (%)
LOC440313 (protein enabled homolog),SID160767754,0.687,7.8,6.63
LOC440313 (protein enabled homolog),SID160767755,-0.705,-1.99,2.66
LOC440313 (protein enabled homolog),SID160767756,-0.48,-0.41,2.98
TCEAL7 (transcription elongation factor A like 7),SID160745183,-1.44,-7.17,1.52
TCEAL7 (transcription elongation factor A like 7),SID160745184,-0.618,-1.38,3.8
TCEAL7 (transcription elongation factor A like 7),SID160745185,-0.538,-0.82,2.77
OR2K2 (olfactory receptor family 2 subfamily K member 2),SID160737826,-0.463,-0.29,4.3
OR2K2 (olfactory receptor family 2 subfamily K member 2),SID160737828,-0.0534,2.59,5.06
OR2K2 (olfactory receptor family 2 subfamily K member 2),SID160737829,-0.0741,2.45,4.15
COX8A (cytochrome c oxidase subunit 8A),SID160723712,0.822,8.75,8.19
COX8A (cytochrome c oxidase subunit 8A),SID160730607,0.857,9,7.2
COX8A (cytochrome c oxidase subunit 8A),SID160747069,0.313,5.17,6.81
ELP6 (elongator acetyltransferase complex subunit 6),SID160742341,-1.2,-5.48,1.64
ELP6 (elongator acetyltransferase complex subunit 6),SID160742342,0.571,6.99,7.21
ELP6 (elongator acetyltransferase complex subunit 6),SID160742344,0.0572,3.37,4.31
MAP1LC3B (microtubule associated protein 1 light chain 3 beta),SID160731972,-0.548,-0.886,3.87
MAP1LC3B (microtubule associated protein 1 light chain 3 beta),SID160750933,-0.654,-1.64,4.75
MAP1LC3B (microtubule associated protein 1 light chain 3 beta),SID160750935,0.285,4.98,6.63
AP2M1 (adaptor related protein complex 2 subunit mu 1),SID160743946,1.23,11.6,10.8
AP2M1 (adaptor related protein complex 2 subunit mu 1),SID160743957,-0.366,0.39,4.23
AP2M1 (adaptor related protein complex 2 subunit mu 1),SID160743968,0.516,6.6,6.11
CHRNA6 (cholinergic receptor nicotinic alpha 6 subunit),SID160721211,2.55,20.9,12.9
CHRNA6 (cholinergic receptor nicotinic alpha 6 subunit),SID160721212,1.19,11.3,8.62
CHRNA6 (cholinergic receptor nicotinic alpha 6 subunit),SID160721213,0.0931,3.62,5.79
FAM9A (family with sequence similarity 9 member A),SID160760517,1.06,10.4,7.33
FAM9A (family with sequence similarity 9 member A),SID160760518,0.776,8.43,5.79
FAM9A (family with sequence similarity 9 member A),SID160760519,0.604,7.22,5.04
CACNA2D2,SID160721822,0.724,8.06,8.22
CACNA2D2,SID160721823,0.0308,3.18,5.86
CACNA2D2,SID160721824,-0.99,-4,2.81
FJX1 (four-jointed box kinase 1),SID160732780,2.4,19.9,10.2
FJX1 (four-jointed box kinase 1),SID160736916,-0.516,-0.662,4.16
FJX1 (four-jointed box kinase 1),SID160736918,0.00411,3,5.24
TRARG1 (trafficking regulator of GLUT4 (SLC2A4) 1 (gene/pseudogene)),SID160763886,0.311,5.16,5.52
TRARG1 (trafficking regulator of GLUT4 (SLC2A4) 1 (gene/pseudogene)),SID160763889,0.057,3.37,4.35
TRARG1 (trafficking regulator of GLUT4 (SLC2A4) 1 (gene/pseudogene)),SID160763890,-0.701,-1.96,2.67
EFCAB14 (EF-hand calcium binding domain 14),SID160723149,-0.428,-0.0425,5.31
EFCAB14 (EF-hand calcium binding domain 14),SID160723151,2.67,21.8,13
EFCAB14 (EF-hand calcium binding domain 14),SID160723152,3.17,25.3,12.6
MAFK (MAF bZIP transcription factor K),SID160719514,-0.688,-1.87,4.81
MAFK (MAF bZIP transcription factor K),SID160724117,0.0878,3.58,5.66
MAFK (MAF bZIP transcription factor K),SID160724118,-0.399,0.159,4.32

As entered above.
MAFK (MAF bZIP transcription factor K) [SID160724117], G2 robust z-score = 0.0878
Entry for OR2K2 (olfactory receptor family 2 subfamily K member 2) [SID160737828] under “G2 cells, % of GMNN control”: 2.59
ELP6 (elongator acetyltransferase complex subunit 6) [SID160742341], raw share of cells in G2 (%): 1.64
Entry of CHRNA6 (cholinergic receptor nicotinic alpha 6 subunit) [SID160721211] in “G2 cells, % of GMNN control”: 20.9
TRARG1 (trafficking regulator of GLUT4 (SLC2A4) 1 (gene/pseudogene)) [SID160763886], G2 cells, % of GMNN control: 5.16
LOC440313 (protein enabled homolog) [SID160767756], raw share of cells in G2 (%) → 2.98

The list goes on:
target,PubChem SID,G2 robust z-score,"G2 cells, % of GMNN control",raw share of cells in G2 (%)
AQP3 (aquaporin 3 (Gill blood group)),SID160719200,2.65,21.6,12.1
AQP3 (aquaporin 3 (Gill blood group)),SID160719210,-1.31,-6.28,2.84
AQP3 (aquaporin 3 (Gill blood group)),SID160719221,-0.7,-1.96,3.26
CPED1 (cadherin like and PC-esterase domain containing 1),SID160749887,-0.66,-1.68,3.75
CPED1 (cadherin like and PC-esterase domain containing 1),SID160749888,1.31,12.2,9.63
CPED1 (cadherin like and PC-esterase domain containing 1),SID160749889,-0.00509,2.93,3.18
ZMYM3 (zinc finger MYM-type containing 3),SID160721710,2.46,20.3,14.1
ZMYM3 (zinc finger MYM-type containing 3),SID160721711,-0.987,-3.97,2.32
ZMYM3 (zinc finger MYM-type containing 3),SID160721712,-0.133,2.03,4.07
HMGCS1 (3-hydroxy-3-methylglutaryl-CoA synthase 1),SID160775062,-0.228,1.37,6.2
HMGCS1 (3-hydroxy-3-methylglutaryl-CoA synthase 1),SID160775063,-0.722,-2.11,3.43
HMGCS1 (3-hydroxy-3-methylglutaryl-CoA synthase 1),SID160775064,1.56,13.9,10.1
FOXN3 (forkhead box N3),SID160730508,-0.725,-2.14,4.21
FOXN3 (forkhead box N3),SID160742639,0.113,3.77,6.3
FOXN3 (forkhead box N3),SID160742660,0.193,4.33,5.59
SPPL3 (signal peptide peptidase like 3),SID160755938,0.288,4.99,7.71
SPPL3 (signal peptide peptidase like 3),SID160755939,1.81,15.7,9.65
SPPL3 (signal peptide peptidase like 3),SID160755940,0.343,5.38,6.26
TUFT1 (tuftelin 1),SID160718458,-0.559,-0.964,4.7
TUFT1 (tuftelin 1),SID160718460,2.29,19.1,11.5
TUFT1 (tuftelin 1),SID160734395,-0.628,-1.45,2.84
NEURL2 (neuralized E3 ubiquitin protein ligase 2),SID160724833,-0.697,-1.93,3.99
NEURL2 (neuralized E3 ubiquitin protein ligase 2),SID160757910,-0.675,-1.78,3.95
NEURL2 (neuralized E3 ubiquitin protein ligase 2),SID160757911,-1.55,-7.96,2.16
SELENOS (selenoprotein S),SID160744465,0.107,3.72,5.95
SELENOS (selenoprotein S),SID160744466,-0.145,1.95,4.95
SELENOS (selenoprotein S),SID160744467,0.227,4.56,4.59
